Results taken from PMC7532690.
Results are given in words; binding and its absence hold for the method and conditions named. Binding seen in cells or lysates may run through a third protein.

Chains of the proteins cited; added tags and fusions are not shown. Residues count along the entry.
UniProt Q9JLF7, residues 27-859: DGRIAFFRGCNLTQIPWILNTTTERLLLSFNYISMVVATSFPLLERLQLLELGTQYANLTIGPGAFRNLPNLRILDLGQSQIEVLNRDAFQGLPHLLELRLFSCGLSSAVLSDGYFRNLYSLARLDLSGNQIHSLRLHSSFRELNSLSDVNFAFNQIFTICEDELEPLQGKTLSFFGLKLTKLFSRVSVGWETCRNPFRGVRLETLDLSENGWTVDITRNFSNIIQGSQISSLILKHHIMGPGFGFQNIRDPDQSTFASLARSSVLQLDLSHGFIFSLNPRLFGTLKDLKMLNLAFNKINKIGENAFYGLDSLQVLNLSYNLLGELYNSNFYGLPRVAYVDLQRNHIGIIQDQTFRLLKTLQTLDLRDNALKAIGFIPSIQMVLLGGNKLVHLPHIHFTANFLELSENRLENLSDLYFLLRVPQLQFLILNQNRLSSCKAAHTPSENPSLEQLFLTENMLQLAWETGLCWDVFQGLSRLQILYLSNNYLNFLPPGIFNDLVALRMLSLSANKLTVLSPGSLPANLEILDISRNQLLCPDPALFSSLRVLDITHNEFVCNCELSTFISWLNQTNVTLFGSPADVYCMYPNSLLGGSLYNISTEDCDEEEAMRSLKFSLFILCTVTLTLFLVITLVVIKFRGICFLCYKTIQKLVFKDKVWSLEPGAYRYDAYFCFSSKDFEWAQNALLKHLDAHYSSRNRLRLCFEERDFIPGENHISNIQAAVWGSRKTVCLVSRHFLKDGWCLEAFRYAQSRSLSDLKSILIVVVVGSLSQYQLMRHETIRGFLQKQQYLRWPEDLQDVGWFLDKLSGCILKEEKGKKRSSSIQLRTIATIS

Molecular target: toll-like receptor 5 (mouse (endogenous in heart)) (UniProt Q9JLF7)
Test: co-IP; mouse heart lysates incubated with antibodies targeting TLR5 or IgG at 4 °C overnight, collected on Protein A+G agarose beads; immunoblot with NOX2 antibody or Syk antibody

B1: NADPH oxidase (NOX) 2 (enzyme, UniProt Q61093 1-570)
chain: MGNWAVNEGLSIFVILVWLGLNVFLFINYYKVYDDGPKYNYTRKLLGSALALARAPAACLNFNCMLILLPVCRNLLSFLRGSSACCSTRIRRQLDRNLTFHKMVAWMIALHTAIHTIAHLFNVEWCVNARVGISDRYSIALSDIGDNENEEYLNFAREKIKNPEGGLYVAVTRLAGITGIVITLCLILIITSSTKTIRRSYFEVFWYTHHLFVIFFIGLAIHGAERIVRGQTAESLEEHNLDICADKIEEWGKIKECPVPKFAGNPPMTWKWIVGPMFLYLCERLVRFWRSQQKVVITKVVTHPFKTIELQMKKKGFKMEVGQYIFVKCPKVSKLEWHPFTLTSAPEEDFFSIHIRIVGDWTEGLFNACGCDKQEFQDAWKLPKIAVDGPFGTASEDVFSYEVVMLVGAGIGVTPFASILKSVWYKYCDNATSLKLKKIYFYWLCRDTHAFEWFADLLQLLETQMQERNNANFLSYNIYLTGWDESQANHFAVHHDEEKDVITGLKQKTLYGRPNWDNEFKTIASEHPNTTIGVFLCGPEALAETLSKQSISNSESGPRGVHFIFNKENF
  binding: no binding
